We go through 6 substances from patent US20210253520A1 (UNIVERSITAT DE BARCELONA, priority 2018, published 2021).

The same purity stands for every peptide and may come from a single statement. Some peptides are written in HELM: one residue between dots, names in brackets for other building blocks, links after the first $.

The nature of this data set: general procedure: Fmoc solid-phase peptide synthesis; 2-Chlorotrityl chloride (CTC) resin; DIPCDI/HOBt. The settings on record: whole synthesis; for final HPLC purity: area integration of HPLC trace.

Consider “PEPTIDE1{[Oct].[Dab].T.[Dab].C.[Dab].[dF].[OLe].[Dab].[Dab].[Ttr]}$PEPTIDE1,PEPTIDE1,5:R3-11:R3$$$V2.0”, for which the crude yield was determined as 34%, the isolated yield is on record as 10% and the “final HPLC purity” value was greater than 99%.

For “DAdec-Thr-Dab-cyc/o(S—S)[Cys-Dab-DPhe-Leu-Dab-Dab-Ttr]”, the crude yield was 42%, the isolated yield stood at 17% and the “final HPLC purity” value was greater than 99%.

For the substance “DAdec-Thr-Dab-cyc/o(S—S)[Cys-Dab-DLeu-Leu-Dab-Dab-Ttr]”, the crude yield is listed as 62%, the isolated yield came out at 18% and the “final HPLC purity” value is greater than 99%.

For the substance “PEPTIDE1{[D-Adec].T.[Dab].C.[Dab].[dL].[OLe].[Dab].[Dab].[Ttr]}$PEPTIDE1,PEPTIDE1,4:R3-10:R3$$$V2.0”, the crude yield came out at 27%, the isolated yield is 13% and the “final HPLC purity” value is reported as greater than 99%.

For the substance “PEPTIDE1{[D-Adec].T.[Dab].C.[Dab].[dF].[OLe].[Dab].[Dab].[Ttr]}$PEPTIDE1,PEPTIDE1,4:R3-10:R3$$$V2.0”, the crude yield turned out to be 40%, the isolated yield worked out at 12% and the “final HPLC purity” value is given as greater than 99%.

In the case of “Octanoyl-Dab-Thr-Dab-cyc/o(S—S)[Cys-Dab-DLeu-OLe-Dab-Dab-Ttr]”, the crude yield was found to be 24%, the isolated yield was 12% and the “final HPLC purity” value is greater than 99%.
